Measured values published in US8658662B2, “Crystalline CDC7 inhibitor salts” (Nerviano Medical Sciences S.r.l., priority 2009, dated 2014).
Counter-ions that a name gives are not always drawn. Some results were stated once for a whole list of compounds, not compound by compound.

experiment: Hygroscopicity test by Dynamic Vapour Sorption (DVS); type: physicochemical; conditions: RH up to 90% at 25° C.
Excerpt: The water uptake of crystalline NMS-E354 salts and free base was investigated by submitting a sample of such substances to a hygroscopicity test by means of a DVS 1000 (SMS). The apparatus is a “controlled atmosphere microbalance” where the weighed sample is exposed to programmed variations of the relative humidity (RH) at a constant and controlled temperature. The measured parameters (weight, time and RH), reported in Excel worksheets, allow obtaining hygroscopicity curves over the tested RH range. Sorption/desorption cycles between 0% and 90% RH can be performed at controlled temperature of 25° C. Progressive variations of RH can be of 10% and 3%; they are operated by the software at the equilibration of the sample weight. This condition can be defined at a constant rate of percent weight variation e.g. 0.005%/min.

Water uptake, ≤ 2%:
NC(=O)c1cc(-c2ccnc(N)n2)[nH]c1-c1ccc(Cl)cc1Cl [Hemifumarate salt, 5-(2-amino-pyrimidin-4-yl)-2-(2,4-dichloro-phenyl)-1H-pyrrole-3-carboxylic acid amide]
NC(=O)c1cc(-c2ccnc(N)n2)[nH]c1-c1ccc(Cl)cc1Cl [Maleate salt, 5-(2-amino-pyrimidin-4-yl)-2-(2,4-dichloro-phenyl)-1H-pyrrole-3-carboxylic acid amide]
NC(=O)c1cc(-c2ccnc(N)n2)[nH]c1-c1ccc(Cl)cc1Cl [Mesylate salt, 5-(2-amino-pyrimidin-4-yl)-2-(2,4-dichloro-phenyl)-1H-pyrrole-3-carboxylic acid amide]
NC(=O)c1cc(-c2ccnc(N)n2)[nH]c1-c1ccc(Cl)cc1Cl [Sulfate salt, 5-(2-amino-pyrimidin-4-yl)-2-(2,4-dichloro-phenyl)-1H-pyrrole-3-carboxylic acid amide]
